Measured values taken from PMC6983933.
Substitutions are numbered along the chain they refer to. Names and notes keep the numbering of the source. Results are given in words; binding and its absence hold for the method and conditions named. For some assays here: In cells and extracts the contact can be indirect. Some entries that bind do so weakly or less than the wild type. Tags and fused reporters may be left off the sequences shown.

Amino acid sequences for entries named in this document (tags omitted).
UniProt Q96CV9: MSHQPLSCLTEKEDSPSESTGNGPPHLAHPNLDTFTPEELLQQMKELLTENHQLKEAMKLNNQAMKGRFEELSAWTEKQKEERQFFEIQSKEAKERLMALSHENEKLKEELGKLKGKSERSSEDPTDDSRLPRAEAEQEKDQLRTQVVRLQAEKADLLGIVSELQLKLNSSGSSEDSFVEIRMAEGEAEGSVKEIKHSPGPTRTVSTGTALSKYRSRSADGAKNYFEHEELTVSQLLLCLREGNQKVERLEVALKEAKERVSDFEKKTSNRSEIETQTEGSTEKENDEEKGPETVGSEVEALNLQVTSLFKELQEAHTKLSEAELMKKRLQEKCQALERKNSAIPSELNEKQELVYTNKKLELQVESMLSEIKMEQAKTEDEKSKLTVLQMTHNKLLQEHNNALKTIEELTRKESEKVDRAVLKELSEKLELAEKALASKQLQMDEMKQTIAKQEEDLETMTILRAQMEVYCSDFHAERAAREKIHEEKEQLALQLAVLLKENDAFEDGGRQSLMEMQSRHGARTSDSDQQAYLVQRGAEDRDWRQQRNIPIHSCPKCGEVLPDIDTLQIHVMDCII

Legend:
[1] = target: T1, HA-tagged TBK1 p.C471Y (human) (UniProt Q9UHD2); assay: co-IP; HEK293T cotransfected with HA-TBK1 (WT or mutant) and FLAG-OPTN WT, 48 h; IP buffer 50 mM tris pH 7.4, 150 mM NaCl, 1% Triton-X-100, 100 mM CaCl2; anti-HA tag antibody with Dynabeads Protein G, room temperature 2 h; 6 washes; Western blot (n = 3)
T1 sequence: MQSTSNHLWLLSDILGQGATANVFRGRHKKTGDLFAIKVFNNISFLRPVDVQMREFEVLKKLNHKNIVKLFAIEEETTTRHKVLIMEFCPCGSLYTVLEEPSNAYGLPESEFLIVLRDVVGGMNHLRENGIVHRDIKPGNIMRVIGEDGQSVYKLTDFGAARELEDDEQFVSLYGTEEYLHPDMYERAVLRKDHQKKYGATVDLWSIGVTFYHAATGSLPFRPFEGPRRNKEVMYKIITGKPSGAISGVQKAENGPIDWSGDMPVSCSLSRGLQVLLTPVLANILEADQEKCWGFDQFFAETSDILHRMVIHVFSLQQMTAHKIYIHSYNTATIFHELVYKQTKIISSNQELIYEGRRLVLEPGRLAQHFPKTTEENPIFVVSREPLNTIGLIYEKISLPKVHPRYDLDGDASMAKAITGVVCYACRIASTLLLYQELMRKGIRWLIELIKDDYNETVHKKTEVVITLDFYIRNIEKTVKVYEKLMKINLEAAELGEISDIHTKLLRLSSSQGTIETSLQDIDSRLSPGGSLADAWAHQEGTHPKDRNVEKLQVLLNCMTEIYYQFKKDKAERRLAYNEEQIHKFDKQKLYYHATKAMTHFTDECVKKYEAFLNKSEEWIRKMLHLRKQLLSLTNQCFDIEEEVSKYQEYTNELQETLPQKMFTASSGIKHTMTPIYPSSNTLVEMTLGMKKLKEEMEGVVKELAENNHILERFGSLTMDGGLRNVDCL

[2] = target: T2, HA-tagged TBK1 wild-type (TANK binding kinase 1) (human) (UniProt Q9UHD2); assay: as above
T2 sequence: T1 sequence with Y471C

[3] = target: T3, HA-tagged TBK1 wild-type (TANK binding kinase 1) (human), Q9UHD2; assay: native gel or EMSA; lysates of HEK293T transfected with HA-TBK1 WT or mutant, NativePAGE Novex Bis-Tris gel, blot probed with anti-HA tag; dimer and monomer bands (n = 3); conditions: remark: other sources report otherwise
T3 chain: T1 sequence with Y471C

[4] = target: T1, HA-tagged TBK1 p.C471Y (human); assay: as above
[5] = target: HA-tagged TBK1 p.G217R (human) (UniProt Q9UHD2); assay: as above

Molecule: FLAG-tagged optineurin (OPTN) wild type (from UniProt Q96CV9 1-577)
- binding [1]: binds
- binding [2]: binds

B1: HA-tagged TBK1 wild-type (TANK binding kinase 1), Q9UHD2 1-729 (enzyme)
chain: T1 sequence with Y471C
- binding [3]: binds

B2: HA-tagged TBK1 p.C471Y (enzyme, UniProt Q9UHD2 1-729)
chain: T1 sequence
- binding [4]: binds

B3: HA-tagged TBK1 p.G217R (enzyme, UniProt Q9UHD2 1-729)
chain: T1 sequence with G217R, Y471C
- binding [5]: binds weakly
